Test system: clock genes and metabolic output genes in mouse liver
Assay: Liver gene expression in HFD-fed WT mice (qPCR, Western blot, microarray)
Type: in vivo
Settings: for number of genes with altered expression, nobiletin/HF: microarray
Protocol: For qPCR analysis, cells were split into 6-well plates at an initial density of 3×10^5 cells and incubated for 2-4 days before synchronization (5 μM Fsk or 100 nM Dex) followed by compound treatment. RNA samples were prepared by using PureXtract RNAsol for cDNA synthesis and real-time PCR (GenDEPOT) was performed with a MaxPro3000 Thermocycler (Agilent). qPCR primers used are listed in the table shown in Example 4. Whole cell lysates from cells similarly grown and treated in 60 mm dishes and tissue extracts were prepared as described (Yoo et al., 2013) and subjected to Western blot analysis (GenDEPOT). Antibodies for REV-ERBα (Pierce and Cell Signaling), PER1 (Lee et al., 2001) and other clock proteins (Yoo et al., 2013) were used. Total RNAs prepared from liver tissues from RC-fed, Vehicle-treated and HFD-fed, Vehicle or NOB-treated WT mice for 10 weeks were reverse transcribed into cDNAs, which were then biotin-UTP labeled and hybridized to the Illumina mouse WG-6v2.0 Expression BeadChip. Genes with statistically significant fold change differences was clustered using centered correlation (Cluster 3.0) and then visualized as a heat map on Tree View. Moreover, genes with statistically significant differences derived from microarray analyses were imported into the Ingenuity Pathway Analysis (IPA, http://www.ingenuity.com). In IPA, differentially expressed genes are mapped to genetic networks in the Ingenuity Knowledge Database to generate a set of network and then ranked by score. Heatmaps were generated by using Cluster 3.0 program. ChIP-seq data analysis was conducted as previously described (Koike et al., 2012). The data discussed in this publication have been deposited in NCBI's Gene Expression Omnibus (Edgar et al., 2002) and are accessible through GEO Series accession number GSE78848. To characterize the molecular basis of nobiletin action in HFD-fed WT mice, studies focused on a major metabolic organ, the liver, in which we observed a strong protection by nobiletin was observed. Specifically, total RNAs prepared from liver tissues from RC.Veh and HF.Veh or HF.nobiletin WT mice for 10 weeks were reverse transcribed into cDNAs, which were then biotin-UTP labeled and hybridized to the Illumina mouse WG-6v2.0 Expression BeadChip. The data discussed in this publication have been deposited in the National Center for Biotechnology Information's Gene Expression Omnibus (GEO) and are accessible through GEO Series accession number GSE78848. Real-time qPCR and western blotting analyses of circadian gene expression were conducted as previously described (Yoo et al., 2013). Primers used were as follows: […]

## COc1ccc(-c2cc(=O)c3c(OC)c(OC)c(OC)c(OC)c3o2)cc1OC [nobiletin]
At both time points (ZT2 and ZT14)
  number of genes altered by HFD and reversed by nobiletin: 56 genes
At one time point (ZT2 or ZT14)
  number of genes altered by HFD and reversed by nobiletin: 251 genes
ZT2 (third value of the list)
  number of genes with altered expression, nobiletin/HF: 915 genes
ZT14 (fourth value of the list)
  number of genes with altered expression, nobiletin/HF: 243 genes

Reference: patent US20180296523A1, “USE OF POLYMETHOXYLATED FLAVONES TO AMELIORATE CIRCADIAN RHYTHM DISORDERS” (THE BOARD OF REGENTS OF THE UNIVERSITY OF TEXAS SY, priority 2017, published 2018)
